No constants are given. Whether binding was seen depends on the method and setting. In cells and extracts the contact can be indirect. Some binding calls cover weakened binding; strength is not graded here. Sequences can lack the tags named with a protein.
B1: mCherry-HA-hnRNP L full-length (1-589) (protein, UniProt P14866 1-589)
chain: MSRRLLPRAEKRRRRLEQRQQPDEQRRRSGAMVKMAAAGGGGGGGRYYGGGSEGGRAPKRLKTDNAGDQHGGGGGGGGGAGAAGGGGGGENYDDPHKTPASPVVHIRGLIDGVVEADLVEALQEFGPISYVVVMPKKRQALVEFEDVLGACNAVNYAADNQIYIAGHPAFVNYSTSQKISRPGDSDDSRSVNSVLLFTILNPIYSITTDVLYTICNPCGPVQRIVIFRKNGVQAMVEFDSVQSAQRAKASLNGADIYSGCCTLKIEYAKPTRLNVFKNDQDTWDYTNPNLSGQGDPGSNPNKRQRQPPLLGDHPAEYGGPHGGYHSHYHDEGYGPPPPHYEGRRMGPPVGGHRRGPSRYGPQYGHPPPPPPPPEYGPHADSPVLMVYGLDQSKMNCDRVFNVFCLYGNVEKVKFMKSKPGAAMVEMADGYAVDRAITHLNNNFMFGQKLNVCVSKQPAIMPGQSYGLEDGSCSYKDFSESRNNRFSTPEQAAKNRIQHPSNVLHFFNAPLEVTEENFFEICDELGVKRPSSVKVFSGKSERSSSGLLEWESKSDALETLGFLNHYQMKNPNGPYPYTLKLCFSTAQHAS
B2: mCherry-HA-hnRNP L 1-321 (domain or fragment, UniProt P14866 1-321)
chain: MSRRLLPRAEKRRRRLEQRQQPDEQRRRSGAMVKMAAAGGGGGGGRYYGGGSEGGRAPKRLKTDNAGDQHGGGGGGGGGAGAAGGGGGGENYDDPHKTPASPVVHIRGLIDGVVEADLVEALQEFGPISYVVVMPKKRQALVEFEDVLGACNAVNYAADNQIYIAGHPAFVNYSTSQKISRPGDSDDSRSVNSVLLFTILNPIYSITTDVLYTICNPCGPVQRIVIFRKNGVQAMVEFDSVQSAQRAKASLNGADIYSGCCTLKIEYAKPTRLNVFKNDQDTWDYTNPNLSGQGDPGSNPNKRQRQPPLLGDHPAEYGGPH
B3: mCherry-HA-hnRNP L 162-321 (domain or fragment, UniProt P14866 162-321)
chain: IYIAGHPAFVNYSTSQKISRPGDSDDSRSVNSVLLFTILNPIYSITTDVLYTICNPCGPVQRIVIFRKNGVQAMVEFDSVQSAQRAKASLNGADIYSGCCTLKIEYAKPTRLNVFKNDQDTWDYTNPNLSGQGDPGSNPNKRQRQPPLLGDHPAEYGGPH
B4: mCherry-HA-hnRNP L 96-161 (domain or fragment, UniProt P14866 96-161)
chain: HKTPASPVVHIRGLIDGVVEADLVEALQEFGPISYVVVMPKKRQALVEFEDVLGACNAVNYAADNQ
B5: mCherry-HA-hnRNP L 1-161 (domain or fragment, UniProt P14866 1-161)
chain: MSRRLLPRAEKRRRRLEQRQQPDEQRRRSGAMVKMAAAGGGGGGGRYYGGGSEGGRAPKRLKTDNAGDQHGGGGGGGGGAGAAGGGGGGENYDDPHKTPASPVVHIRGLIDGVVEADLVEALQEFGPISYVVVMPKKRQALVEFEDVLGACNAVNYAADNQ
B6: mCherry-HA-hnRNP L 1-95 (domain or fragment, UniProt P14866 1-95)
chain: MSRRLLPRAEKRRRRLEQRQQPDEQRRRSGAMVKMAAAGGGGGGGRYYGGGSEGGRAPKRLKTDNAGDQHGGGGGGGGGAGAAGGGGGGENYDDP
B7: mCherry-HA-hnRNP L 322-589 (domain or fragment, UniProt P14866 322-589)
chain: GGYHSHYHDEGYGPPPPHYEGRRMGPPVGGHRRGPSRYGPQYGHPPPPPPPPEYGPHADSPVLMVYGLDQSKMNCDRVFNVFCLYGNVEKVKFMKSKPGAAMVEMADGYAVDRAITHLNNNFMFGQKLNVCVSKQPAIMPGQSYGLEDGSCSYKDFSESRNNRFSTPEQAAKNRIQHPSNVLHFFNAPLEVTEENFFEICDELGVKRPSSVKVFSGKSERSSSGLLEWESKSDALETLGFLNHYQMKNPNGPYPYTLKLCFSTAQHAS

These binders were tested against T1, Halo-SETD2C (1404-2564) (human) (UniProt Q9BYW2) (assay: pull-down).
T1 sequence: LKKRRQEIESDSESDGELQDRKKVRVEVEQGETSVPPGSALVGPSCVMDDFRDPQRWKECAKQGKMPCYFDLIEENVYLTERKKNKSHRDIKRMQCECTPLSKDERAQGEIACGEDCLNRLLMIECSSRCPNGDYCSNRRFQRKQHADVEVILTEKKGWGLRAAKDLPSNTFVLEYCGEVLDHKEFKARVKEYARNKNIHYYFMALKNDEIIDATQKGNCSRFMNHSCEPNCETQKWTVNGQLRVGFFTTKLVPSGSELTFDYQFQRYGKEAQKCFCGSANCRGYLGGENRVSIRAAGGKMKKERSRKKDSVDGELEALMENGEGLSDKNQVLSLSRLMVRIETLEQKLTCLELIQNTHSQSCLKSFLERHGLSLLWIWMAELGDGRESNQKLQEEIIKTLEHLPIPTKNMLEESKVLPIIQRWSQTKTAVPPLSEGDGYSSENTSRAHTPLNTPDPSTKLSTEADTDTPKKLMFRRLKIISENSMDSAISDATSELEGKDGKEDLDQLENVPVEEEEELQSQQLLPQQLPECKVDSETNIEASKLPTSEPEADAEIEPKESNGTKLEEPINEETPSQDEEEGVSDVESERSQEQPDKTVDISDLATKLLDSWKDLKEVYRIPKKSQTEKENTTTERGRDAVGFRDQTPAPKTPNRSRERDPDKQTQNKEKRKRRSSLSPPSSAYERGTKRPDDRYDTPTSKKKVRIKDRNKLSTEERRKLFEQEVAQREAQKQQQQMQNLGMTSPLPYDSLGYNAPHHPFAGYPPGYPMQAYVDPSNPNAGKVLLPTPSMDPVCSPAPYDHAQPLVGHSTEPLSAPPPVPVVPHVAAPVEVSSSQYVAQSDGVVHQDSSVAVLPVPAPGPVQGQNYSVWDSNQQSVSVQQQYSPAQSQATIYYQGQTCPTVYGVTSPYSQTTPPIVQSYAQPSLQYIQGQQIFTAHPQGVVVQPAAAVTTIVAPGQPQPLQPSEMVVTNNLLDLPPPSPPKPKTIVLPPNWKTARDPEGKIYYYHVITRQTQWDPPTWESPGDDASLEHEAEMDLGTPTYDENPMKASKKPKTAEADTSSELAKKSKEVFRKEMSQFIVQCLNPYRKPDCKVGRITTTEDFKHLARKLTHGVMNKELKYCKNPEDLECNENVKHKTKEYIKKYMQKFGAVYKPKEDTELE

Row | Binder | binding
1 | B1 | binds
2 | B2 | binds
3 | B3 | binds
4 | B4 | no binding
5 | B5 | no binding
6 | B6 | no binding
7 | B7 | no binding
